# Measured values taken from PubChem BioAssay AID2417 (National Center for Advancing Translational Sciences (NCATS), 2010).
# The whole screen tested about 140,000 compounds, of which about 4,300 (3.1%) were called active. This list was built around the results that the source calls inconclusive (neither active nor inactive); the mix of calls is not that of the screen.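 The calls were made as follows: active = readout at or below -70, meaning at least 70% loss of cells showing the perinucleolar compartment, a nuclear body marking cancer cells; inconclusive = readout between -30 and a set limit; inactive = the rest.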
# Experiment: High Content Assay for Compounds that inhibit the Assembly of the Perinucleolar Compartment;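 also: plate controls were DMSO wells for no effect and camptothecin positive control wells for full effect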
# Details: PC3M PTB-GFP, PNC prevalence imaging, 16 h; at 10 µM; active compounds read low
# In short: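 Read-out is percentage of cells bearing a perinucleolar compartment, from automated 20x imaging of fixed, Hoechst-stained PC3M PTB-GFP cells. Cells were seeded 4 h, then exposed 16 h to compound (23 nl of library stock) in duplicate plates.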
row,SMILES,"activity change (PNC), negative = inhibition"
1,CCC(NC(=O)C1(C)CC1(Br)Br)c1ccc(C)cc1 (stereo unspecified),inconclusive: -30.9%
2,C#CCSc1nc(-c2ccccc2)cc(C(F)(F)F)c1C#N,inconclusive: -42.2%
3,Nc1c(-c2ccccc2)cnc2ncnn12,inconclusive: -38.7%
4,CCCCn1c(O)c(N=NC(=O)c2ccco2)c2ccccc21,inactive: 23%
5,CCCCCCNCCn1cnc2c(N)ncnc21,inconclusive: -36.5%
6,CCOc1ccc(N2C(=O)CC(Sc3nc(C)cc(C)n3)C2=O)cc1 (stereo unspecified),inconclusive: -35.1%
7,CCCC(=O)NCCc1ccc(S(N)(=O)=O)cc1,inconclusive: -33.2%
8,COc1ccccc1Nc1nnc(SCc2cc(=O)n3cc(C)ccc3n2)s1,inactive: 26%
9,Nc1nnc(SCCOc2cccc(Br)c2)s1,inactive: -20.7%
10,Cn1c(=O)c2c(nc(CN3CCN(Cc4ccccc4)CC3)n2Cc2ccc(F)cc2)n(C)c1=O,inconclusive: -73.2%
11,Cc1cc(C(C)(C)C)nc2[nH]n(-c3ccccc3)c(=O)c12,inactive: 0.593%
12,CCOC(=O)c1sc2ncnc(NCc3ccco3)c2c1C,inconclusive: -59.2%
13,O=C1C2C(c3ccccc3)C=CC(c3ccccc3)C2C(=O)N1c1ccncc1 (stereo unspecified),inactive: 53.6%
14,O=C(N/N=C/c1ccco1)C1CC1c1ccccc1 (stereo unspecified),inactive: -1.71%
15,CCOc1ccc(NC(=S)Nc2ccc(C)c([N+](=O)[O-])c2)cc1,inconclusive: -37.7%
16,Cc1cc(C(=O)N/N=C2\CC(=O)CC(C)(C)C2)c2ccccc2n1,inconclusive: -49.9%
17,Cn1nnnc1SCC(=O)N1CCCc2ccccc21,inactive: -15.2%
18,CN(C)c1ccc(/C=C(/C#N)C(=O)NCc2ccccc2)o1,active: -83.2%
19,CC(C)N1CCC(=NNC(=O)c2ccccc2[N+](=O)[O-])CC1,inconclusive: -31.5%
20,COc1ccc(S(=O)(=O)N2CCC(C(=O)Nc3cccc(C(C)=O)c3)CC2)cc1C,inconclusive: -59.6%
21,COc1ccc(NC(=O)C2CCCN(S(=O)(=O)c3ccc(C)cc3)C2)cc1OC (stereo unspecified),inconclusive: -56.8%
22,CCC(=O)Nc1cccc(NC(=O)c2cccnc2)c1,inconclusive: -47.5%
23,N#Cc1ccccc1CSc1nc2ccsc2c(=O)n1Cc1ccccn1,inconclusive: -49.7%

# Taken from above:
# Nc1c(-c2ccccc2)cnc2ncnn12 – activity change (PNC), negative = inhibition: inconclusive: -38.7%
# COc1ccc(NC(=O)C2CCCN(S(=O)(=O)c3ccc(C)cc3)C2)cc1OC (stereo unspecified) – activity change (PNC), negative = inhibition: inconclusive: -56.8%

# (continued)

row,SMILES,"activity change (PNC), negative = inhibition"
1,Cc1ccc(N(CC(=O)NCCSc2nc3ccccc3s2)S(=O)(=O)c2ccccc2)c(C)c1,inconclusive: -44.6%
2,CCC(=O)Nc1nc(=S)ss1,inconclusive: -43.5%
3,O=C(CCn1c(=S)oc2ccccc21)Nc1ccc2c(c1)OCCO2,inconclusive: -60.6%
4,CN(C)CCOC(=O)C(c1ccccc1)C1(O)CCCC1 (stereo unspecified),inconclusive: -40.6%
5,COc1ccc(Br)cc1C1NC(=O)NC(C)=C1C(=O)N(C)C (stereo unspecified),inconclusive: -36.5%
6,O=C(COc1ccc(Cl)cc1Cl)Nc1ccc(Cl)cn1,inactive: 23.3%
7,Nc1nc(SCC(=O)N2CCCC2)[nH]c(=O)c1NC(=O)c1ccco1,inconclusive: -31.2%
8,CSc1nncc(/C(C)=N/O)n1,inconclusive: -34.6%
9,O=C(Nc1nc2c(s1)COc1ccccc1-2)c1cccs1,inactive: 3.42%
10,CCSC1(SCC)N=C(N)C2(C#N)C(c3ccccc3)NC3=C(CCC3)C12C#N (stereo unspecified),inconclusive: -43%
11,Cc1ccccc1NC(=O)C1C2CC/C=C\CCC21 (stereo unspecified),inconclusive: -45.8%
12,CC1CCCN(c2ccc(C(=O)OCC(=O)N3c4ccccc4Sc4ccccc43)cc2[N+](=O)[O-])C1 (stereo unspecified),inconclusive: -42.2%
13,Cn1nccc1CNC(=O)c1ccnn1C,inactive: 23.5%
14,COc1ccc(C)cc1S(=O)(=O)N(CC(=O)Nc1cccc([N+](=O)[O-])c1)c1ccc(C)cc1,active: -81.9%
15,Cc1nc(NC(=O)C(Cl)Cl)sc1C(=O)N(C)C,inactive: 29.7%
16,Cc1cccc(/C(N)=N/OC(=O)C23CC4CC(CC(C4)C2)C3)c1,active: -114%
17,COc1cccc(C(C(=O)NC(C)(C)C)N(C(=O)CCC(=O)Nc2cc(C)on2)C(C)C)c1OC (stereo unspecified),inconclusive: -34.4%
18,Cc1ccc(C)c(NC(=S)NC(NC(=O)Cc2ccccc2)C(Cl)(Cl)Cl)c1 (stereo unspecified),inconclusive: -34.1%
19,COc1cc(/C=C/C(=O)OCC(=O)Nc2cc(C(F)(F)F)ccc2N2CCOCC2)ccc1O,inactive: 42.1%
20,Cc1ccc(-n2c(=O)c(C#N)cc3c(=O)n4cccc(C)c4nc32)cc1,inactive: -24.7%
21,Cc1ccc(NC(=O)CC(O)(C(F)(F)F)C(F)(F)F)c(Br)c1,inconclusive: -67.4%
22,O=C(Cc1cn2ccsc2n1)NCc1ccccc1,inconclusive: -33.8%
23,CC(=O)Oc1ccc(N(C(C)=O)S(=O)(=O)c2cccs2)c2ccccc12,active: -82.1%
